# PubChem BioAssay AID1259424 | University of Nebraska Medical Center | 2018
# Test: 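Rank knockdowns across the genome by resemblance to the KSR1 depletion profile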 (primary screen)
# Cells: human HCT116 colon cancer cells
# Reagents: siRNA pool against human genes, 50 nM
# Detection: 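Six signature mRNAs by branched-DNA multiplex assay, scaled to two housekeeping genes and non-targeting median, log2; matched to mean KSR1 knockdown profile by Pearson correlation and euclidean distance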
# Direction: mean correlation with KSR1 profile and KSR1 correlation: higher = expression change more like KSR1 knockdown; mean distance from KSR1 profile: higher = expression change less like KSR1 knockdown
# Shown is an unselected part of about 14,000 deposited reagents. 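Higher correlation or smaller distance means closer resemblance to KSR1 loss; control wells, including KSR1 knockdowns, recur on many plates.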 Further read-outs or replicates are left out here. Reagent sequences are not shown. Not given: the time to read-out.
gene symbol,mean correlation with KSR1 profile,mean distance from KSR1 profile,"KSR1 correlation, replicate 1"
MLN (motilin),0.517,1.5,0.565
RPL23A (ribosomal protein L23a),0.398,4.12,0.387
SH2B3 (SH2B adaptor protein 3),-0.543,2.74,-0.426
CD22 (CD22 molecule),-0.209,2.17,0.0243
PACSIN3 (protein kinase C and casein kinase substrate in neurons 3),0.745,0.871,0.513
ATRNL1 (attractin like 1),0.0942,1.56,0.45
TIMM10 (translocase of inner mitochondrial membrane 10),0.345,1.66,0.225
ARF5 (ARF GTPase 5),-0.0993,1.83,-0.151
SLC11A1,0.0592,1.07,0.249
"ST6GALNAC1 (ST6 N-acetylgalactosaminide alpha-2,6-sialyltransferase 1)",-0.191,2.64,-0.269
SPARCL1 (SPARC like 1),0.623,1.68,0.507
PDIA5 (protein disulfide isomerase family A member 5),0.331,2.97,0.344
EFS (embryonal Fyn-associated substrate),0.0147,1.76,0.0884
TAF1L (TATA-box binding protein associated factor 1 like),0.523,1.3,0.687
GDF10 (growth differentiation factor 10),0.111,1.3,-0.355
"GIMAP6 (GTPase, IMAP family member 6)",0.862,2.3,0.872
PIR (pirin),-0.269,1.64,0.000442
XPO5 (exportin 5),0.313,1.66,0.441
CDC42EP2 (CDC42 effector protein 2),-0.555,1.52,-0.478
MANEA (mannosidase endo-alpha),0.305,2.39,0.282
